From article PMC2797610
These are yes or no findings as the source states them, for the method shown. For part of these data: In cells and extracts the contact can be indirect. Some entries that bind do so weakly or less than the wild type. Tags and fused reporters may be left off the sequences shown.

Sequences of proteins named here, by UniProt entry; tags and fusion partners are left off.
UniProt P22216: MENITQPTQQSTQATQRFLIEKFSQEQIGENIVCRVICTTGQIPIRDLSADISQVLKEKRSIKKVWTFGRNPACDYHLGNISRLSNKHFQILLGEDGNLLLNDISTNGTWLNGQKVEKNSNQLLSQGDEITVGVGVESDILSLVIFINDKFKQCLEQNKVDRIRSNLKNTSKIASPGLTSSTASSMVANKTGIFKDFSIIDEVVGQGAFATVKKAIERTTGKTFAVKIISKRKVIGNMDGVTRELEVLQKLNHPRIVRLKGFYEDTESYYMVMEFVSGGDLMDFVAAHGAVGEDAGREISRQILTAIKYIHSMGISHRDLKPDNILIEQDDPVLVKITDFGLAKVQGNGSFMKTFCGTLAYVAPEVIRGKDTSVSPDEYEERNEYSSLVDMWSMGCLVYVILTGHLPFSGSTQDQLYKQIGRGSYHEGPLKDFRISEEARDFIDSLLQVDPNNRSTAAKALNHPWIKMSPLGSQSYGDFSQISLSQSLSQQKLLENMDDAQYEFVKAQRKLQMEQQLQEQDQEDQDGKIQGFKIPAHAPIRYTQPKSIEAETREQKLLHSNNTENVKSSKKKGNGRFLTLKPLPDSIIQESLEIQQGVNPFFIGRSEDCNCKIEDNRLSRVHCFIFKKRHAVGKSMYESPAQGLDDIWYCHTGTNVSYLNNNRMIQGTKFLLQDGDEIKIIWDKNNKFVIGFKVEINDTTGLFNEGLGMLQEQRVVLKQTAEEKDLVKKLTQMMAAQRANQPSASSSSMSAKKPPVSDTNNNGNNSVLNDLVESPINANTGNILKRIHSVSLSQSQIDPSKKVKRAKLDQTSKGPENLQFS

Tests used:
[1] = target: T1, GST-PBD_(357–705), recombinant fusion of GST and the polo box domain of Cdc5 (S. cerevisiae) (UniProt P32562); assay: pull-down; Standard GST pull down with the polo box of Cdc5, tested for Rad53; no figure is given for this result; only the target purified
T1 sequence: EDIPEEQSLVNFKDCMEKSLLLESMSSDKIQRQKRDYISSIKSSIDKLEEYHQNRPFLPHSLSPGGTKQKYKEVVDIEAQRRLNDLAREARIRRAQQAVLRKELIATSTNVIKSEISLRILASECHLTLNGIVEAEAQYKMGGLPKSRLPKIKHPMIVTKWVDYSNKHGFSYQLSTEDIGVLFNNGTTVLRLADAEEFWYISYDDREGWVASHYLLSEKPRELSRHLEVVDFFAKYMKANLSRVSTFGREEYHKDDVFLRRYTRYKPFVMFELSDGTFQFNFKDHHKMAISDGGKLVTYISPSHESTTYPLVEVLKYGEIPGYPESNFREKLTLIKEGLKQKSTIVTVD

[2] = target: T2, lexA fusion with the polo box domain of Cdc5 (pEG202-PBD_(340–705)) (S. cerevisiae) (UniProt P32562); assay: two-hybrid; B42/lexA system in strain EGY48 with the lacZ reporter pSH18-34; X-Gal plates with raffinose (prey repressed) or galactose (prey expressed)
T2 sequence: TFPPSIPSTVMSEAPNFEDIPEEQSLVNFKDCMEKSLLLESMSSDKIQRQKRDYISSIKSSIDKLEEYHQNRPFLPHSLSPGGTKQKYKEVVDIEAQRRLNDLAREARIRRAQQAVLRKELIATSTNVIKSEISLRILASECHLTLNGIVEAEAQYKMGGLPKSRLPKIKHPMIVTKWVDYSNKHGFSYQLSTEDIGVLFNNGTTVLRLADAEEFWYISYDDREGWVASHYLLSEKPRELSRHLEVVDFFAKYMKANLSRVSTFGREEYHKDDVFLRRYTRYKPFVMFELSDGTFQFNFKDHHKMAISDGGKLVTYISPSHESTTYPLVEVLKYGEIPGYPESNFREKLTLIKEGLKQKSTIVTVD

[3] = target: T1, GST-PBD_(357–705), recombinant fusion of GST and the polo box domain of Cdc5 (S. cerevisiae); assay: pull-down; GST-PBD(357-705) on glutathione-Sepharose beads incubated with whole cell extract of nocodazole-blocked strain Y202 (SAE2-3HA); 1 hour at 4°C; washed three times with NP-40 buffer; western blot with 12CA5; only the target purified

## Rad53 (from UniProt P22216 1-821)
[1]
  binding: no binding

B1: B42 activating domain fusion of full length Sae2 (pJG4-5-SAE2) (protein, UniProt P46946 1-345)
chain: MVTGEENVYLKSSLSILKELSLDELLNVQYDVTTLIAKRVQALQNRNKCVLEEPNSKLAEILCHEKNAPQQSSQTSAGPGEQDSEDFILTQFDEDIKKESAEVHYRNENKHTVQLPLVTMPPNRHKRKISEFSSPLNGLNNLSDLEDCSDTVIHEKDNDKENKTRKLLGIELENPESTSPNLYKNVKDNFLFDFNTNPLTKRAWILEDFRPNEDIAPVKRGRRKLERFYAQVGKPEDSKHRSLSVVIESQNSDYEFAFDNLRNRSKSPPGFGRLDFPSTQEGNEDKKKSQEIIRRKTKYRFLMASNNKIPPYEREYVFKREQLNQIVDDGCFFWSDKLLQIYARC
[2]
  binding: binds

B2: Sae2-3HA (protein, UniProt P46946 1-345)
chain: B1 chain
[3]
  binding: binds
